Our source for the neurite formation score values is the supplement of paper PMC8047044.

Several values for one entry are separate records, joined by “and”; a condition that tells them apart may be missing. Equal values may be shown once. Some of the results follow. Most values come without repeats; read them as rough.

The assay has as its system Neuro-2a. The assay is described as follows: neurite formation score, plate-normalized to DMSO control mean 5.04 (score (0-8 scale)); higher = more or longer neurites. The conditions noted are these: 10 µM.
The compound `CNc1nc(-c2ccc3c(N)n[nH]c3c2)cc(N2C[C@@H](C(=O)NC3CCCCC3)CC[C@H]2C)n1` returned a neurite formation score of 4.86.
The figure for `FC(F)c1nc2ccccc2n1-c1nc(N2CCOCC2)nc(N2CCOCC2)n1` is 4.19; for `Cn1cc(-c2[nH]c3cc(NC(=O)[C@H](N)C4CCCCC4)cc4c3c2C=NNC4=O)cn1` it is 1.09; for `CCN(CC)CCCC(C)Nc1ccnc2cc(Cl)ccc12` (stereo not drawn) [Chloroquine diphosphate] it is 5.09.
`CN1CCN(c2ccc(Nc3cc(-c4cccc(-n5ccc6cc(C7CC7)cc(F)c6c5=O)c4CO)cn(C)c3=O)nc2)CC1`: the neurite formation score worked out at 2.09.
For `N#CC1(c2ccc(NC(=O)c3cccnc3NCc3ccncc3)cc2)CCCC1` [Apatinib] the value was 3.86; for `CS(=O)(=O)N1CCC(NC(=O)c2[nH]ncc2NC(=O)c2c(Cl)cccc2Cl)CC1`, 3.42.
For `O=C(Nc1cccnc1)c1cc(-c2ccnc(F)c2)ccc1OCc1ccccc1`, the neurite formation score was 4.86.
The figure for `CC(C)(C)c1nc(-c2cccc(NS(=O)(=O)c3c(F)cccc3F)c2F)c(-c2ccnc(N)n2)s1` is 4.08 and 3.43.
The figure for `Cc1ccc(-n2nc(C(C)(C)C)cc2NC(=O)Nc2ccc(OCCN3CCOCC3)c3ccccc23)cc1` [BIRB 796 (Doramapimod)] is 2.52; for `COc1c(OCCCN2CCOCC2)ccc2c3n(c(=NC(=O)c4cnc(N)nc4)nc12)CCN3` [BAY 80-6946 (Copanlisib)] it is 4.09; for `Cc1nc(Nc2n[nH]c3c2CN(C(=O)N[C@H](CN(C)C)c2ccccc2)C3(C)C)c2sccc2n1` it is -0.256.
Consider `CNC(=O)c1ccccc1Sc1ccc2c(/C=C/c3ccccn3)n[nH]c2c1`, for which the neurite formation score turned out to be 4.52.
